According to the supplement of paper PMC10849652:
This is one part of the list.

Key:
Assay in all cases: log2 fold change, soluble protein after heating vs DMSO (PISA); higher = thermal stabilisation; K562 lysate, 10 uM; active = over 0.2 and 3.5 SD of the protein, either way, in both replicates (recomputed)
alvocidib = compound: CN1CC[C@H](c2c(O)cc(O)c3c(=O)cc(-c4ccccc4Cl)oc23)[C@H](O)C1 [alvocidib]
Summary of the method: (§1)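 Soluble protein was defined as the supernatant remaining after 21,000xg for 90 min, following pooling of heated aliquots and adjustment to 0.5% NP-40 at 4°C. Before that, crude K562 extract at 1 mg/mL protein in PBS pH 7.4 with 1 mM MgCl2 was treated with 10 μM compound for 30 min and heated for 3 min across 48°C-58°C. Quantification used TMTpro 16plex LC-MS/MS with channel sums equalised, and values are log-two fold changes in thermal stability relative to solvent controls from duplicates.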

Tubastatin A = compound: CN1CCc2c(c3ccccc3n2Cc2ccc(C(=O)NO)cc2)C1 [Tubastatin A]
Summary of the method: as §1

[1] = compound: CNC(=O)C1=CC=CC=C1NC2=NC(=NC=C2Cl)NC3=C(C=C(C=C3)N4CCOCC4)OC
Summary of the method: as §1

defactinib = compound: CNC(=O)c1ccc(Nc2ncc(C(F)(F)F)c(NCc3nccnc3N(C)S(C)(=O)=O)n2)cc1 [defactinib]
Summary of the method: as §1

[2] = compound: CNc1nc(-c2ccc3c(N)n[nH]c3c2)cc(N2C[C@@H](C(=O)NC3CCCCC3)CC[C@H]2C)n1
Summary of the method: as §1

encorafenib = compound: COC(=O)N[C@@H](C)CNc1nccc(-c2cn(C(C)C)nc2-c2cc(Cl)cc(NS(C)(=O)=O)c2F)n1 [encorafenib]
Summary of the method: as §1

[3] = compound: COC(=O)[C@H](CCSC)NC(=O)C1=C(C=C(C=C1)NC[C@H](CS)N)C2=CC=CC=C2
Summary of the method: as §1

alisertib = compound: COc1cc(Nc2ncc3c(n2)-c2ccc(Cl)cc2C(c2c(F)cccc2OC)=NC3)ccc1C(=O)O [alisertib]
Summary of the method: as §1

[4] = compound: COc1cc2nc(-c3cc(F)ccc3O)nc(N[C@@H]3CNC[C@H]3C(C)(C)O)c2cc1OC
Summary of the method: as §1

gefitinib = compound: COc1cc2ncnc(Nc3ccc(F)c(Cl)c3)c2cc1OCCCN1CCOCC1 [gefitinib]
Summary of the method: as §1

lapatinib = compound: CS(=O)(=O)CCNCc1ccc(-c2ccc3ncnc(Nc4ccc(OCc5cccc(F)c5)c(Cl)c4)c3c2)o1 [lapatinib]
Summary of the method: as §1

pictilisib = compound: CS(=O)(=O)N1CCN(Cc2cc3nc(-c4cccc5[nH]ncc45)nc(N4CCOCC4)c3s2)CC1 [pictilisib]
Summary of the method: as §1

crizotinib = compound: C[C@@H](Oc1cc(-c2cnn(C3CCNCC3)c2)cnc1N)c1c(Cl)ccc(F)c1Cl [crizotinib]
Summary of the method: as §1

[5] = compound: C[C@H](C1=CC=C(C=C1)C(=O)NC2=C3C=CNC3=NC=C2)N
Summary of the method: as §1

duvelisib = compound: C[C@H](Nc1ncnc2nc[nH]c12)c1cc2cccc(Cl)c2c(=O)n1-c1ccccc1 [duvelisib]
Summary of the method: as §1

gandotinib = compound: Cc1cc(Nc2cc(CN3CCOCC3)c3nc(C)c(Cc4ccc(Cl)cc4F)n3n2)n[nH]1 [gandotinib]
Summary of the method: as §1

tozasertib = compound: Cc1cc(Nc2cc(N3CCN(C)CC3)nc(Sc3ccc(NC(=O)C4CC4)cc3)n2)n[nH]1 [tozasertib]
Summary of the method: as §1

doramapimod = compound: Cc1ccc(-n2nc(C(C)(C)C)cc2NC(=O)Nc2ccc(OCCN3CCOCC3)c3ccccc23)cc1 [doramapimod]
Summary of the method: as §1

bafetinib = compound: Cc1ccc(NC(=O)c2ccc(CN3CC[C@H](N(C)C)C3)c(C(F)(F)F)c2)cc1Nc1nccc(-c2cncnc2)n1 [bafetinib]
Summary of the method: as §1

[6] = compound: Cc1cccc(CC(=O)N2CCc3c2ccc(-c2cn(C)c4ncnc(N)c24)c3F)n1
Summary of the method: as §1

Row | Target | log2 fold change (alvocidib) | log2 fold change (Tubastatin A) | log2 fold change [1] | log2 fold change (defactinib) | log2 fold change [2] | log2 fold change (encorafenib) | log2 fold change [3] | log2 fold change (alisertib) | log2 fold change [4] | log2 fold change (gefitinib) | log2 fold change (lapatinib) | log2 fold change (pictilisib) | log2 fold change (crizotinib) | log2 fold change [5] | log2 fold change (duvelisib) | log2 fold change (gandotinib) | log2 fold change (tozasertib) | log2 fold change (doramapimod) | log2 fold change (bafetinib) | log2 fold change [6]
1 | PROSER2 (UniProt Q86WR7) | inactive: -0.064 | inactive: -0.011 | inactive: 0.004 | inactive: 0.089 | inactive: 0.003 | inactive: 0.016 | inactive: -0.006 | inactive: 0.061 | inactive: 0.008 | inactive: -0.002 | inactive: -0.149 | inactive: -0.009 | inactive: -0.019 | inactive: 0.054 | inactive: -0.025 | inactive: 0.173 | inactive: -0.064 | inactive: 0.057 | inactive: 0.01 | inactive: -0.027
2 | PPP1R13L (UniProt Q8WUF5) | inactive: -0.014 | inactive: 0.075 | inactive: 0.007 | inactive: 0.15 |  | inactive: 0.184 | inactive: 0.038 | inactive: -0.257 | inactive: 0.017 | inactive: -0.034 | inactive: -0.154 | inactive: 0.177 | inactive: 0.045 | inactive: -0.037 |  | inactive: 0.133 | inactive: 0.034 | inactive: 0.045 | inactive: 0.089 | inactive: 0.03
3 | PRKCQ (UniProt Q04759) | inactive: -0.062 | inactive: -0.083 | inactive: -0.059 | inactive: -0.055 | inactive: 0.024 | inactive: -0.007 | inactive: 0.003 | inactive: 0.017 | inactive: 0.122 | inactive: 0.031 | inactive: -0.022 | inactive: 0.013 | inactive: 0.038 | inactive: -0.14 | inactive: 0.022 | inactive: -0.01 | inactive: 0.035 | inactive: 0.037 | inactive: -0.037 | inactive: 0.068
4 | PPP2R5C isoform 2 (UniProt Q13362) | inactive: -0.004 | inactive: 0.044 | inactive: -0.028 | inactive: -0.024 | inactive: 0.001 |  |  | inactive: 0.058 |  | inactive: -0.062 |  | inactive: 0.151 | inactive: 0.234 | inactive: -0.021 | inactive: -0.064 | inactive: 0.026 |  | inactive: -0.043 | inactive: 0.103 | inactive: -0.005
5 | PPP2R3C (UniProt Q969Q6) | inactive: -0.018 | inactive: -0.145 | inactive: -0.046 | inactive: 0.072 | inactive: 0.081 | inactive: 0.105 | inactive: 0.013 | inactive: 0.069 | inactive: -0.23 | inactive: 0.105 | inactive: 0.048 | inactive: -0.029 |  | inactive: -0.1 | inactive: 0.028 | inactive: -0.097 | inactive: 0.036 |  | inactive: 0.022 | inactive: 0.023
6 | PPP1R14C (UniProt Q8TAE6) | inactive: -0.045 | inactive: -0.033 |  | inactive: -0.002 | inactive: -0.14 | inactive: 0.064 | inactive: 0.014 | inactive: -0.044 | inactive: -0.04 | inactive: 0.032 | inactive: -0.044 | inactive: -0.025 |  | inactive: -0.022 | inactive: 0.121 | active: 0.358 | inactive: 0.08 |  | inactive: 0.041 | inactive: 0.336
7 | PPP3CA isoform 2 (UniProt Q08209) | inactive: 0.043 | inactive: 0.017 | inactive: 0.033 | inactive: 0.101 | inactive: 0.01 | inactive: 0.023 | inactive: 0 | inactive: 0.061 | inactive: -0.001 | inactive: 0.09 | inactive: -0.008 | inactive: 0.085 | inactive: 0.048 | inactive: 0.075 | inactive: 0.008 | inactive: -0.099 | inactive: -0.068 | inactive: -0.006 | inactive: -0.026 | inactive: -0.091
8 | PPP4R1 (UniProt Q8TF05) | inactive: -0.007 | inactive: -0.088 | inactive: 0.007 | inactive: 0.007 | inactive: -0.021 | inactive: 0.015 | inactive: 0.015 | inactive: 0.002 | inactive: 0 | inactive: 0.019 | inactive: -0.007 | inactive: -0.001 | inactive: -0.037 | inactive: 0.001 | inactive: 0.015 | inactive: -0.008 | inactive: -0.005 | inactive: 0.014 | inactive: -0.034 | inactive: 0.036
9 | PRKRIP1 (UniProt Q9H875) | inactive: -0.018 | inactive: 0.072 | inactive: 0.011 | inactive: 0.012 | inactive: 0.046 | inactive: -0.003 | inactive: -0.023 | inactive: -0.021 | inactive: 0.01 | inactive: 0.006 | inactive: -0.002 | inactive: -0.003 | inactive: 0.083 | inactive: -0.006 | inactive: 0.007 | inactive: 0.008 | inactive: 0.11 | inactive: -0.008 | inactive: 0.003 | inactive: 0.017
10 | PPM1H (UniProt Q9ULR3) | inactive: -0.046 | inactive: 0.071 | inactive: 0.006 | inactive: -0.03 | inactive: 0.078 | inactive: -0.008 | inactive: -0.028 |  | inactive: 0.05 |  | inactive: 0.013 | inactive: 0.016 | inactive: 0.021 | inactive: -0.043 | inactive: 0 | inactive: 0.157 | inactive: 0.021 | inactive: 0.093 | inactive: -0.079 | inactive: 0.038
11 | PROCR (UniProt Q9UNN8) | inactive: -0.025 | inactive: 0.035 | inactive: 0.008 | inactive: 0.087 | inactive: -0.138 | inactive: -0.052 | inactive: 0.027 | inactive: 0.061 | inactive: -0.04 | inactive: 0.223 | inactive: 0.042 | inactive: -0.065 | inactive: -0.012 | inactive: -0.024 | inactive: -0.045 | inactive: 0.067 | inactive: 0.018 | inactive: 0.07 | inactive: 0.171 | inactive: 0.123
12 | PPP2R5B (UniProt Q15173) | inactive: 0.069 | inactive: -0.012 | inactive: -0.03 | inactive: -0.091 | inactive: -0.056 | inactive: -0.017 | active: 0.288 |  | inactive: 0.046 |  | inactive: -0.089 | inactive: -0.064 | inactive: 0.075 | inactive: -0.017 | inactive: 0.021 | inactive: -0.168 | inactive: 0.04 | inactive: 0.005 | inactive: 0.054 | inactive: -0.036
13 | PRNP (UniProt P04156) | inactive: -0.076 | inactive: -0.024 | inactive: 0.111 |  | inactive: 0.152 |  |  | inactive: 0.06 | inactive: 0.017 | inactive: -0.133 | inactive: -0.034 | inactive: -0.089 | inactive: -0.16 | inactive: -0.075 | inactive: -0.085 | inactive: 0.116 |  | inactive: 0.054 | inactive: 0.108 | inactive: -0.064
14 | PRMT6 (UniProt Q96LA8) | inactive: -0.017 | inactive: -0.016 | inactive: -0.033 | inactive: -0.019 | inactive: -0.125 | inactive: 0.047 | inactive: 0 | inactive: 0.002 | inactive: 0 | inactive: 0.032 | inactive: 0.04 | inactive: 0.004 | inactive: -0.03 | inactive: 0.05 | inactive: 0.016 | inactive: -0.069 | inactive: -0.004 | inactive: 0.003 | inactive: -0.019 | inactive: 0.028
15 | PRKDC (UniProt P78527) | inactive: -0.06 | inactive: -0.114 | inactive: -0.002 | inactive: 0.033 | inactive: -0.03 | inactive: -0.022 | inactive: -0.035 | inactive: 0.012 | inactive: -0.003 |  | inactive: -0.032 | inactive: 0.155 | inactive: -0.026 | inactive: -0.088 | inactive: 0.298 | inactive: 0.132 | inactive: -0.03 | inactive: -0.038 | inactive: -0.146 | inactive: -0.074
16 | PPP1CA (UniProt P62136) | inactive: -0.047 | inactive: 0.001 | inactive: -0.018 | inactive: -0.063 | inactive: -0.016 | inactive: -0.027 | inactive: 0 | inactive: 0.057 | inactive: 0.006 | inactive: 0.018 | inactive: -0.017 | inactive: -0.056 | inactive: -0.007 | inactive: -0.024 | inactive: 0.017 | inactive: 0.019 | inactive: 0.07 | inactive: 0.032 | inactive: 0.003 | inactive: 0.046

Looked up above:
For log2 fold change [1], PRNP (UniProt P04156) reads inactive: 0.111
For log2 fold change (Tubastatin A), PPP3CA isoform 2 (UniProt Q08209) reads inactive: 0.017
